Measured values published in paper PMC12040169 (PLOS Biology, 2025).
This is one part of the list.

These molecules were tested on T1, CTL2-GFP (C. trachomatis L2/434/Bu, GFP-expressing). Conditions: bulk GFP, single well; 28.5 h, 10 µM; inhibitor.
T1 construct: L2/434/Bu, GFP-expressing
Design: species or system HeLa; Intracellular C. trachomatis growth in HeLa cells, bulk GFP fluorescence relative to DMSO

Compound	% of control remaining [%]
COc1cccc2sc(NC(=O)CCCN(C)C)nc12 [CBK149261]	123.126
Cc1ccc(OCCO)cn1 [CBK001786]	111.222
Cc1ccc(Cc2cnc(NC(=O)N3CCC(O)C(F)(F)C3)s2)cc1C (stereo not shown) [CBK304120]	167.32
c1csc(CNc2nc3ccccc3n2CCN2CCOCC2)c1 [CBK262462]	98.402
CN(C)CCCN(Cc1ccco1)Cc1cccn1-c1ccccn1 [CBK283180]	125.423
COc1cc(/C=N\NC(=O)CN2CCN(C)CC2)cc2c1OCO2 [CBK261503]	89.9486
COc1ccc(C(=O)C2=C(O)C(=O)N(Cc3cccnc3)C2c2ccc(N(C)C)cc2)cc1 (stereo not shown) [CBK264635]	100
COc1ncc(-c2nccnc2NCc2cccs2)c(OC)n1 [CBK037318]	182.197
Cc1ccc(C)c(N2CCN(CCCNC(=S)Nc3ccc(Cl)cc3Cl)CC2)c1 [CBK267951]	78.1396
COC(=O)NC(=O)N1CCN(c2c(Cl)cncc2Cl)CC1 [CBK043398]	91.8514
CC(=O)N[C@@H](CC[S+](C)[O-])C(=O)N1CCC2(C/C=C/C[C@@H]3COCC[C@@H]3NC(=O)[C@@H](CC(C)C)NC2=O)CC1 (stereo partly shown) [CBK292192]	82.6532
O=C(O)C1=CC(c2c[nH]nc2-c2ccc(F)cc2)n2ncnc2N1 (stereo not shown) [CBK286906]	122.368
COc1ccccc1N1CCN(c2c(C)c(C)nc3cc(-c4nccn4C)nn23)CC1 [CBK286182]	138.016
CCN1CCC(CC(=O)N2CCc3[nH]c4ccccc4c3C2)CC1 [CBK281846]	162.527
c1ccc(CCNc2c3c(nc4ccccc24)CCC3)cc1 [CBK263693C]	111.07
N#Cc1c(NC(=O)c2cc(S(=O)(=O)N3CCOCC3)cs2)sc2c1CCCC2 [CBK264532]	100
CCCSCC(=O)Nc1nn(C)c2cccc(N3CCOCC3)c12 [CBK307354]	115.016
COc1ccc(Cl)cc1NC(=O)C1CC(=O)N=C(N2CCOCC2)N1 (stereo not shown) [CBK268893]	123.487
COc1ccc(CC(=O)N2CCCc3c(cnn3C)C2)cc1F [CBK285285]	115.039
O=S(=O)(Nc1cc(F)cc(F)c1F)c1cc(OC2CCNCC2)c2occc2c1 [CBK082814C]	141.135
Cc1cc(-c2nnc(SCc3ccc(Cl)cc3)n2C)no1 [CBK067720]	95.8786
COc1ccccc1CN(C(=O)Nc1ccccc1Cl)C1CC1 [CBK298332]	129.88
CCCCNC(=O)NS(N)(=O)=O [CBK022990]	171.637
Clc1ccc(CSc2nccnc2N2CCCC2)cc1 [CBK107177]	68.3992
C/C(Cl)=C\CN1C(=O)C(=O)c2cc(C)ccc21 [CBK087601]	104.601
Cn1cc(-c2ccncc2)c(C2CCCCN2C(=O)c2ccccc2)n1 (stereo not shown) [CBK283444]	141.617

Compound	% of control remaining [%]
O=C1CCCN1c1ccc(S(=O)(=O)NC2C3CCCCC32)cc1 (stereo not shown) [CBK282842]	100.631
CC1=NC(O)(C(F)(F)F)C(c2ccccc2)S1 (stereo not shown) [CBK009121]	145.68
C/C(=N\Nc1ccc(Cl)c(Cl)c1)c1cccnc1 [CBK015914C]	164.2
CC1(C)Cc2c(sc(NC(=O)C3CC(Cl)=CCC3C(=O)O)c2C#N)CO1 (stereo not shown) [CBK265002]	100
O=S(=O)(NC1CCCCC1)c1ccc(Cl)cc1I [CBK057574]	120.379
COCC(=O)NC1CCN(CC2(c3ccc(C)cc3)CC2)CC1 [CBK285350]	97.0475
Cc1cc(C[C@@H]2CCC[C@H]2NCc2cc(Cl)ccc2O)on1 [CBK282997]	144.966
Cc1nc(C)c(CC(=O)N2CCC(Oc3cccc(F)c3)CC2)s1 [CBK282223]	131.854
CSc1ccc(-c2cnc(N)c(-c3ccc(C(=O)N4CCOCC4)cc3)n2)cc1 [CBK084539]	120.157
O=C(CCSc1ccccc1)Nc1ccccc1C(=O)O [CBK264119]	93.778
Cc1c(C)n(Cc2ccco2)c2ncnc(SCCC(=O)O)c12 [CBK307569]	129.944
CCNS(=O)(=O)c1ccc(NC(=S)Nc2ccc(S(N)(=O)=O)cc2)cc1 [CBK266978]	91.8209
CN(C)CCCN1C(=O)C(O)=C(C(=O)c2ccc(Br)cc2)C1c1cccnc1 (stereo not shown) [CBK264589]	100
CCOc1ccc2nc(SCc3nc(N)nc(Nc4cccc(Cl)c4C)n3)sc2c1 [CBK265202]	100
O=c1nc(C(F)(F)F)n2ccccc2n1 [CBK027683]	122.988
COc1ccccc1-c1ncc(OCc2ccccn2)nc1N [CBK145070]	101.823
O=C(NCC(F)F)c1cn2cc(-c3cccs3)n(CC3CC3)c(=O)c2n1 [CBK307347]	100.869
CCN1C(=O)CC2(C1=O)C(=O)N(CCc1cccs1)c1ccccc12 (stereo not shown) [CBK075521]	112.052
CCN1CCN(C(=S)c2ccc(OCC(N)=O)c(OC)c2)CC1 [CBK269293]	136.256
CN(C(=O)C1CCN(Cc2cccc(C(F)(F)F)c2)CC1)C(c1ccc(F)cc1)c1ccccn1 (stereo not shown) [CBK148409]	100
COc1ccc(S(=O)(=O)Nc2ccc3oc4c(c3c2)CC(C)CC4)cc1[N+](=O)[O-] (stereo not shown) [CBK266131]	112.016
FC(F)(F)c1cnc(N2CCNCC2)c(Cl)c1 [CBK013400]	102.095
O=S(=O)(Nc1ccc2cn[nH]c2c1)c1ccc(-c2ccon2)s1 [CBK067157]	90.9748
c1ccc2c(c1)/C(=N/OCCCN1CCCCC1)CC21CCCCC1 [CBK013321]	140.021
CN(C)CCN1CCN(CC2(c3ccc(Cl)cc3)CC2)CC1 [CBK282783]	103.921
CCN1C(=O)c2ccccc2C(=O)[C@@]2(C)CN(C(=O)C3CC3)C[C@@H]12 [CBK284567]	148.052

A second format for part of the listing above:
Compound | % of control remaining [%]
COc1ncc(-c2nccnc2NCc2cccs2)c(OC)n1 [CBK037318] | 182.197
Cc1ccc(C)c(N2CCN(CCCNC(=S)Nc3ccc(Cl)cc3Cl)CC2)c1 [CBK267951] | 78.1396
COC(=O)NC(=O)N1CCN(c2c(Cl)cncc2Cl)CC1 [CBK043398] | 91.8514
CC(=O)N[C@@H](CC[S+](C)[O-])C(=O)N1CCC2(C/C=C/C[C@@H]3COCC[C@@H]3NC(=O)[C@@H](CC(C)C)NC2=O)CC1 (stereo partly shown) [CBK292192] | 82.6532
O=C(O)C1=CC(c2c[nH]nc2-c2ccc(F)cc2)n2ncnc2N1 (stereo not shown) [CBK286906] | 122.368
COc1ccccc1N1CCN(c2c(C)c(C)nc3cc(-c4nccn4C)nn23)CC1 [CBK286182] | 138.016
CCN1CCC(CC(=O)N2CCc3[nH]c4ccccc4c3C2)CC1 [CBK281846] | 162.527
c1ccc(CCNc2c3c(nc4ccccc24)CCC3)cc1 [CBK263693C] | 111.07
N#Cc1c(NC(=O)c2cc(S(=O)(=O)N3CCOCC3)cs2)sc2c1CCCC2 [CBK264532] | 100
CCCSCC(=O)Nc1nn(C)c2cccc(N3CCOCC3)c12 [CBK307354] | 115.016
COc1ccc(Cl)cc1NC(=O)C1CC(=O)N=C(N2CCOCC2)N1 (stereo not shown) [CBK268893] | 123.487
COc1ccc(CC(=O)N2CCCc3c(cnn3C)C2)cc1F [CBK285285] | 115.039
